# According to publication PMC11231159:
# Chains of the proteins cited; added tags and fusions are not shown. Lines headed by an entry give the natural chain unless they say otherwise; changes in a name come on top.
# UniProt Q15796: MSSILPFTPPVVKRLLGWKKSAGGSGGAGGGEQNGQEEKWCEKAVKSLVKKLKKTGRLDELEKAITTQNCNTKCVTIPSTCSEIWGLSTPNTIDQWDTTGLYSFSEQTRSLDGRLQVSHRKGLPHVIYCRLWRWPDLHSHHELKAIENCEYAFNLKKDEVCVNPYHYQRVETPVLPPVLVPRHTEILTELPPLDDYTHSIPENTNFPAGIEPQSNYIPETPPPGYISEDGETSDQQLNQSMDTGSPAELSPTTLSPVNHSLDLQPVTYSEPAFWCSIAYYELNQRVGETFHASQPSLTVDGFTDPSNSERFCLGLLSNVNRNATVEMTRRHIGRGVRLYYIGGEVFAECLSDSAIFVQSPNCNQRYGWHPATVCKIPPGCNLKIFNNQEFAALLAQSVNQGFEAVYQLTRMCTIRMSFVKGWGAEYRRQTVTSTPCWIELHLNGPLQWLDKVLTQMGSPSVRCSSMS
# UniProt P84022: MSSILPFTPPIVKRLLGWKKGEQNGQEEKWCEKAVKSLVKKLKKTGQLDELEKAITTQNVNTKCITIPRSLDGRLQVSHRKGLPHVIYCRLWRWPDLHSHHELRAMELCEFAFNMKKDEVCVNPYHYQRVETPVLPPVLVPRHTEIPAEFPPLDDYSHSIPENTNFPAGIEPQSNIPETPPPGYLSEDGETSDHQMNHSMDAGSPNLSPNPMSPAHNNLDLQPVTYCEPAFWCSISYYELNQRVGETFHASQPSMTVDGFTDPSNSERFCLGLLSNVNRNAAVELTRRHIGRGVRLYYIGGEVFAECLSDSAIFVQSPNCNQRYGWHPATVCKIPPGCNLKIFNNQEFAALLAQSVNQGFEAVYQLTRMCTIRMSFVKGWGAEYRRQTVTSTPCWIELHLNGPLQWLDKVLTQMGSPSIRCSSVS
# UniProt Q04206: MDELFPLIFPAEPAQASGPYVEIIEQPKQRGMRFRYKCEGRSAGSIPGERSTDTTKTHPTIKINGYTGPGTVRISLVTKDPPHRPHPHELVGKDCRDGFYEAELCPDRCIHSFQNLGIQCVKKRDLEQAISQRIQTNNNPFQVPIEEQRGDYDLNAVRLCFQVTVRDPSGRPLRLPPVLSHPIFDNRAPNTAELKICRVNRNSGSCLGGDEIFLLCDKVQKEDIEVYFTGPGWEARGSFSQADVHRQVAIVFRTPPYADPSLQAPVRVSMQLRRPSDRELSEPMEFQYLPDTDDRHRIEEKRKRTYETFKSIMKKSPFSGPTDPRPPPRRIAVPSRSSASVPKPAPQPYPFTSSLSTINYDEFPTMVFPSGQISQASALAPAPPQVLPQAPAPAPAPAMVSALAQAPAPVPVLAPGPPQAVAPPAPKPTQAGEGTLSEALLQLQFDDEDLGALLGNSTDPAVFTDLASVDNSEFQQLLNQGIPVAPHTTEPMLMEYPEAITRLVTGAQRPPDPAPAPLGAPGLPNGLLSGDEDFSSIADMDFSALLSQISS
# No constants are given. Whether binding was seen depends on the method and setting. Binding seen in cells or lysates may run through a third protein. Some results given as binding are weak or reduced against the parent protein; the word gives no strength.
# Assays:
# [1] = target: T1, SMAD2/3 (human (endogenous in CHLA-255 and SK-N-BE(2))) (UniProt Q15796+P84022); test: co-IP; lysates (RIPA buffer) of NB cells (CHLA-255, SK-N-BE(2)) co-cultured with MN and MSC (TME) or treated with 1500 pg/ml rTGF-β1 for 72 h; precipitated with anti-SMAD2/3 and Protein G beads, washed with IP buffer containing 0.5 M NaCl/0.1% SDS, blotted with anti-NF-κB p65
# [2] = target: T1, SMAD2/3 (human (endogenous in CHLA-255 and SK-N-BE(2))); test: co-IP; cytosolic and nuclear fractions of NB cells (nuclear extraction kit) analysed by co-IP following the same protocol
substance,measurement,setting,value
NF-κB p65 (from UniProt Q04206 1-551),binding,[1],binds
same,binding,[2],binds
